At least one compound was matched to its structure with a doubt left.
Tested on: HEK293 cells expressing a sequence of DNA that is stimulated by increases in cyclic AMP
Assay: cAMP-stimulated DNA sequence response to forskolin in HEK293 cells (2-D, microscaffolds, cryopreserved)
Assay type: cell-based

C=C[C@@]1(C)CC(=O)[C@]2(O)[C@@]3(C)[C@@H](O)CCC(C)(C)[C@@H]3[C@H](O)[C@H](OC(C)=O)[C@@]2(C)O1 [forskolin]
effect on cAMP (HEK293 cells incubated with forskolin): dose-dependent increase in cAMP | response to forskolin after cryopreservation versus non-cryopreserved cells (HEK293 cells on standard and magnetic microscaffolds, cryopreserved 24, 48 or 72 hours, FIGS. 14 to 21): comparable to cells that have not been cryopreserved | response to forskolin: 2-D versus 3-D non-magnetic versus 3-D magnetic microscaffolds (HEK293 cells, FIGS. 12 and 13): substantially identical
